These are yes or no findings as the source states them, for the method shown. Binding can be weak; no strength is given.
Target: Squirrel monkey C5aR1 (squirrel monkey)
Experiment: cell surface binding, flow cytometry, half-log titration 10^-7.5 to 10^-12 M

binding: binds
B1: e1711 (antibody, human IgG4 S228P, kappa, V domains shown)
VH: EVQLVESGGGLIQPGGSLRLSCAASGFTFNAYAMSWVRQAPGKGLEWVSSISTGGNTYYADSVKGRFTISRDNSKNTLYLQMNSLRAEDTAVYYCTRGYQRFSGFAYWGQGTLVTVSS
VL: EIVLTQSPATLSLSPGERATLSCRSSQSLVHSNGNTYLNWYQQKPGQAPRLLIYKVSNRLSGIPARFSGSGSGTDFTLTISSLEPEDFAVYYCSQSTHVPYTFGQGTKLEIKR

Reference: patent US20250171555A1
